For 2 substances, binding results are on record in paper PMC12281688.

By UniProt entry, the sequences of proteins in these tests, tags left out. Residues count along the entry.
UniProt Q92633: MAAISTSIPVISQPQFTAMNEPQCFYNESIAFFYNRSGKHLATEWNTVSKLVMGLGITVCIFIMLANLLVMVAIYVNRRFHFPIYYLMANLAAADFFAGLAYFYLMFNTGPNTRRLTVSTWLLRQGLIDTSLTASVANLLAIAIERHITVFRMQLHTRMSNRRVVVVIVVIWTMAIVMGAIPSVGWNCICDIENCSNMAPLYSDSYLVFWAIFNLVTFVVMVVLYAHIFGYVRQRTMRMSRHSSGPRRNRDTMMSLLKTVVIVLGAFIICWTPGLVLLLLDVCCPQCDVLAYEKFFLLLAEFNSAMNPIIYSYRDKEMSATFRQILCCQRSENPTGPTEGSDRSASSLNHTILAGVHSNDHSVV
UniProt P26038: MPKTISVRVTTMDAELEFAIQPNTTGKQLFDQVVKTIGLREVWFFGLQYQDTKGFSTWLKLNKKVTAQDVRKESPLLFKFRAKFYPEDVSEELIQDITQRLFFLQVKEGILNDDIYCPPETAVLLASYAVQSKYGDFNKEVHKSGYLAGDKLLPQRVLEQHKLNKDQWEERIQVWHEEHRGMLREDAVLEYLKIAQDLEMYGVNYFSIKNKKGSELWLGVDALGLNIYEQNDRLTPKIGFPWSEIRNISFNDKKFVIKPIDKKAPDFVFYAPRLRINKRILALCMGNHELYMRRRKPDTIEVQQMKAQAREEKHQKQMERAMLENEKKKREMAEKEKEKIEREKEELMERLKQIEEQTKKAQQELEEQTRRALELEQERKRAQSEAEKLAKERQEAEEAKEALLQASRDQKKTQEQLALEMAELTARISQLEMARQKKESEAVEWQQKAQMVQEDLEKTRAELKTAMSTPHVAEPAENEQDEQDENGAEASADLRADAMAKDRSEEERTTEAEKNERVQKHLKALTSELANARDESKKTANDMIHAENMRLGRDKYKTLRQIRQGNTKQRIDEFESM
UniProt P05231, residues 30-212: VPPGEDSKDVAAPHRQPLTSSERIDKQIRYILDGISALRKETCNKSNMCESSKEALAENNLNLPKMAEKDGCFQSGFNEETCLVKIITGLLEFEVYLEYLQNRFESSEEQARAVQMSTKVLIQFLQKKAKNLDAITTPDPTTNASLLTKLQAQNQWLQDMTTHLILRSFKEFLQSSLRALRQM
UniProt P40763: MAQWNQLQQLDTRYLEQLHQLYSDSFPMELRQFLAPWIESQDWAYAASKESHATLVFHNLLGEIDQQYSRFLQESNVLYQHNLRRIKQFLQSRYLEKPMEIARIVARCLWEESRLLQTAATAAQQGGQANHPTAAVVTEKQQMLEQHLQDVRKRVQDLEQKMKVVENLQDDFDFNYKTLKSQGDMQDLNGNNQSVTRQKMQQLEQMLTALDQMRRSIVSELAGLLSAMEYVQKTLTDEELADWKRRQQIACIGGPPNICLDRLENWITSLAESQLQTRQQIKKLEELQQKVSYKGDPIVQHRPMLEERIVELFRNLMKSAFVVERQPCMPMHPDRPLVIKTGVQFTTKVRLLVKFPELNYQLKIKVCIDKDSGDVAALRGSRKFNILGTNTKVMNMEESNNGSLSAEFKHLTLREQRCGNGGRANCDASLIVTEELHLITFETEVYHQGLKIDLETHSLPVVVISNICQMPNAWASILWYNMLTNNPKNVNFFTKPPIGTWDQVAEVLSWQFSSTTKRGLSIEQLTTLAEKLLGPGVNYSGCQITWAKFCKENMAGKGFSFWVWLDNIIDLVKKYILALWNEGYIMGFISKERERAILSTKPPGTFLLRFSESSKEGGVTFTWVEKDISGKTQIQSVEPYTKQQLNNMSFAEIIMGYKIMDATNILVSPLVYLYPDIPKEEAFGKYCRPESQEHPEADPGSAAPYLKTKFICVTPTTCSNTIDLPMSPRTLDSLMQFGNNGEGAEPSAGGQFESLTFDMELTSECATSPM

No constants are given. Whether binding was seen depends on the method and setting. In cells and extracts the contact can be indirect. Some results given as binding are weak or reduced against the parent protein; the word gives no strength.

The target in test [1] is lysophosphatidic acid receptor 1 (human (endogenous in MDA-MB-231)) (UniProt Q92633). The experiment in a line: co-IP; MDA-MB-231 cell lysate, 500 ug protein with 1 ug primary antibody (anti-LPAR1, anti-IL-6 or anti-IgG) at 4 °C for 4 h, protein G-agarose overnight, washed with PBS, Western blot. Background: Immunoblotting shows a protein as a band on a membrane.
Test [2] has as its target moesin, overexpressed from lentiviral vector Lv105 (MDA-MB-468/MSN cells) (human) (UniProt P26038). The experiment in a line: co-IP; MDA-MB-231 and MDA-MB-468/MSN cell lysates, 500 ug protein with 1 ug primary antibody (anti-MSN, anti-STAT3 or anti-IgG) at 4 °C for 4 h, protein G-agarose overnight, washed with PBS, Western blot.
The target in test [3] is moesin (human (endogenous in MDA-MB-231)) (UniProt P26038). The test is described as above.

Take “interleukin 6 (from UniProt P05231 30-212) (ligand)”: in test [1], the binding entry was “binds”.

Regarding “signal transducer and transcription activator 3 (from UniProt P40763 1-770)”, the binding entry in test [2] and in test [3] was “binds” throughout.
